Among the data in paper PMC8880864 are binding values, retold here.

In this test the target is T1, SpbK (full length) (B. subtilis (ICEBs1)) (UniProt P96648).
T1 sequence: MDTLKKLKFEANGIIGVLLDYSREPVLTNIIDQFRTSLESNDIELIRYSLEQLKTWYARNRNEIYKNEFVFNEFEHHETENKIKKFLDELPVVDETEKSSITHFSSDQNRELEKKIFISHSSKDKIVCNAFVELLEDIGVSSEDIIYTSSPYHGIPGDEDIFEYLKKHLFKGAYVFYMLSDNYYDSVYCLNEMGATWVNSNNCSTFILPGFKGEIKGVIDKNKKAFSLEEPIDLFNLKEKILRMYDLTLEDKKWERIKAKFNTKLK
Briefly: two-hybrid; GAL4 activation domain (pGAD-C1) and GAL4 DNA binding domain (pGBDU-C3) fusions in S. cerevisiae PJ69-4A; spotted on SD medium, scored for growth in the absence of adenine, 30 °C.

No constants are given. Whether binding was seen depends on the method and setting.

Consider YonE (phage SPß of B. subtilis), for which the binding entry is “no binding”.
